Reference: patent US20100028406A1, “TOPICAL DRUG DELIVERY BY IONTOPHORESIS” (UNIVERSITE DE GENEVE, priority 2005, published 2010)

Assay: Iontophoresis across porcine skin in vitro, 3-compartment cells, acetaminophen as electroosmosis marker
Conditions: for effect on basal acetaminophen transport (EO marker): 2 mM donor, absence of competing Na+ ions
Description: Porcine ear skin, which is a well-accepted model for human skin (Dick and Scott, 1992; Sekkat et al., 2002), was used in these studies. Porcine ears were obtained from a local abattoir (Société d'Exploitation d'Abbatage, Annecy, France) a few hours after the sacrifice of the animals. The excised skin was then dermatomed (˜750 μm) on the same day and stored at −20° C. for a maximum of two months.
Iontophoresis was performed using vertical 3-compartment cells (FIG. 2). The skin was placed between two half-cells: the upper half, in contact with the SC, comprised two electrode/donor compartments, while the lower receiver compartment was in contact with the dermis. A flow-through system circulated phosphate-buffered normal saline (PBS: 16.8 mM Na2HPO4, 1.4 mM KH2PO4 and 136.9 mM NaCl; pH 7.4) through the receiver chamber (volume 4.7 mL) at a rate of 3 mL/h. Ag/AgCl electrodes were used throughout the study. The skin was allowed to equilibrate for one hour prior to the iontophoresis experiment. In order to reduce competition from Na^+ ions present in the donor, and thus to increase the permeation of VCV, most experiments were performed using a salt bridge assembly. This strategy consists of physically separating the anodal chamber (Ag electrode immersed in PBS pH 7.4) from the donor compartment (drug solution in contact with the SC) and employing a salt bridge (prepared by filling a 12 cm tubing with a warm aqueous solution of 3% agarose and 0.1 M NaCl and then allowed to cool) to electrically connect the two chambers. […] For control experiments without the salt bridge, the anodal compartment contained 1 mL of 10 mM VCV.HCl in PBS pH 7.4. The cathodal compartment contained PBS pH 7.4 in all the experiments. A constant current of 0.34 mA was applied for 7 hours (equivalent to a current density of 0.5 mA/cm^2). […]
The experiments were performed in sextuplicate, except for passive delivery (n=3), using the skin of as many different animals as possible. Samples were collected hourly and analyzed by high pressure liquid chromatography (HPLC). […]

Row | Structure (SMILES) | effect on basal acetaminophen transport (EO marker) | effect on acetaminophen transport (EO marker) (VCV donor concentration increased from 2 to 10 mM)
1 | Nc1nc2c(ncn2COCCO)c(=O)[nH]1 [ACV, acyclovir] | unaffected | –
2 | CC(C)[C@H](N)C(=O)OCCOCn1cnc2c(=O)[nH]c(N)nc21 [VCV, valaciclovir] | unaffected | decreased significantly
